According to the supplement of paper PMC7666118:
The list shows a part of the results.

Sequences of proteins named here, by UniProt entry; tags and fusion partners are left off. A change or cut given only in a name is not applied to a line headed by its entry.
UniProt P33991: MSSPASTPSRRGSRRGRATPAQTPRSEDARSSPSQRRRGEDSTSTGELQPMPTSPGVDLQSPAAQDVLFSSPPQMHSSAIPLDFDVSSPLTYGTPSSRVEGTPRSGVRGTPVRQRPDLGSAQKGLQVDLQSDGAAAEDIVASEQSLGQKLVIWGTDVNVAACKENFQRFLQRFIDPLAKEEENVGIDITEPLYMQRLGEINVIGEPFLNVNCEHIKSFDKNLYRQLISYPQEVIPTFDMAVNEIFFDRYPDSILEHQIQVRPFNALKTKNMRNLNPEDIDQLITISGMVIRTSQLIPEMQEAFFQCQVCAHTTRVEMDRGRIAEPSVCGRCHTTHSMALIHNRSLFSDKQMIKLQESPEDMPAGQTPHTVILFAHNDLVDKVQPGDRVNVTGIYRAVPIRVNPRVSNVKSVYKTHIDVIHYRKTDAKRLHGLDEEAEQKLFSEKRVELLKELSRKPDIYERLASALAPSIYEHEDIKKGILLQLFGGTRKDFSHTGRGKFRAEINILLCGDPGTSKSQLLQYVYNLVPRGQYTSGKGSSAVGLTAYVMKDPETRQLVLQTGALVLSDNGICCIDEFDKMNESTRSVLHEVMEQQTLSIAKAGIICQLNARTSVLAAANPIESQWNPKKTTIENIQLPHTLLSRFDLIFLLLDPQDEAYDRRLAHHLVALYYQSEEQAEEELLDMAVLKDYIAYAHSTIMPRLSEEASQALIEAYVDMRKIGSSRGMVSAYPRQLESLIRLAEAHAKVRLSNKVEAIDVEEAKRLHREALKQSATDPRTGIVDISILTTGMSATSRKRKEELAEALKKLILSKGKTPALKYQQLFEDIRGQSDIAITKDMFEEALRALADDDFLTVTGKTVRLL
UniProt Q99547: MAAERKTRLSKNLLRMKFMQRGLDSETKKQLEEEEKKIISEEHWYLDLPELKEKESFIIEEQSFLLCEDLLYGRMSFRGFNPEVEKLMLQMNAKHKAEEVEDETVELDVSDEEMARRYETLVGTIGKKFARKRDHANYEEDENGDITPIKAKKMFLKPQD
UniProt P46734: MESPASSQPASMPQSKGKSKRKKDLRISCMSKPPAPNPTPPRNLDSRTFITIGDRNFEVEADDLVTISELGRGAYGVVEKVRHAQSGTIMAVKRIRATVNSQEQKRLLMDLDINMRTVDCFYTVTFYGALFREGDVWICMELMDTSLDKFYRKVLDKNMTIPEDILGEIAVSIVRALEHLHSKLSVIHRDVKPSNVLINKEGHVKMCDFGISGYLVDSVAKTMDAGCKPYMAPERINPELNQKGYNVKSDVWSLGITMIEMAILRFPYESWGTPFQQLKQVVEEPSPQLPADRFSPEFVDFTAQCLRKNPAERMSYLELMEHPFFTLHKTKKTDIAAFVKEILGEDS
UniProt Q3KQU3: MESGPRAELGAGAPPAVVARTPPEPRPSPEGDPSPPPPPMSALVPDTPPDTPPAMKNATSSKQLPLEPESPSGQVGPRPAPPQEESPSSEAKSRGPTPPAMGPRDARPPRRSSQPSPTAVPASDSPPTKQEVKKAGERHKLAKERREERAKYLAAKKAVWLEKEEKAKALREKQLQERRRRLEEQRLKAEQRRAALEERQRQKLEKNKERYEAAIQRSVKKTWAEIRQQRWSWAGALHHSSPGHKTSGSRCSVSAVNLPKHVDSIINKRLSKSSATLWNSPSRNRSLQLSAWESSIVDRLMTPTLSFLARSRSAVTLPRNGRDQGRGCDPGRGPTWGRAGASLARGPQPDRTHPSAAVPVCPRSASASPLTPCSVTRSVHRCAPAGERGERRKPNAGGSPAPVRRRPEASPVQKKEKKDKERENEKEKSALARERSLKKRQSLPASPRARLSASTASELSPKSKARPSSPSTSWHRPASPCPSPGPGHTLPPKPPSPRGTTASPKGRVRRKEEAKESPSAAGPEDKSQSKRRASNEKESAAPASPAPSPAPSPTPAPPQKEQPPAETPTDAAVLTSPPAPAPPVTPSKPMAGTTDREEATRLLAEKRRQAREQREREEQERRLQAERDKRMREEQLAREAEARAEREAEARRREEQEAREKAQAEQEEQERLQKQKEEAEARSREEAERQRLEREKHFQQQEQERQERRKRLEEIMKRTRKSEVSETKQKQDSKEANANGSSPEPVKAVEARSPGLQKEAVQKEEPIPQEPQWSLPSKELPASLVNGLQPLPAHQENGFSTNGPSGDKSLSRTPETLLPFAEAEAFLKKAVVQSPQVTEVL
UniProt P48163: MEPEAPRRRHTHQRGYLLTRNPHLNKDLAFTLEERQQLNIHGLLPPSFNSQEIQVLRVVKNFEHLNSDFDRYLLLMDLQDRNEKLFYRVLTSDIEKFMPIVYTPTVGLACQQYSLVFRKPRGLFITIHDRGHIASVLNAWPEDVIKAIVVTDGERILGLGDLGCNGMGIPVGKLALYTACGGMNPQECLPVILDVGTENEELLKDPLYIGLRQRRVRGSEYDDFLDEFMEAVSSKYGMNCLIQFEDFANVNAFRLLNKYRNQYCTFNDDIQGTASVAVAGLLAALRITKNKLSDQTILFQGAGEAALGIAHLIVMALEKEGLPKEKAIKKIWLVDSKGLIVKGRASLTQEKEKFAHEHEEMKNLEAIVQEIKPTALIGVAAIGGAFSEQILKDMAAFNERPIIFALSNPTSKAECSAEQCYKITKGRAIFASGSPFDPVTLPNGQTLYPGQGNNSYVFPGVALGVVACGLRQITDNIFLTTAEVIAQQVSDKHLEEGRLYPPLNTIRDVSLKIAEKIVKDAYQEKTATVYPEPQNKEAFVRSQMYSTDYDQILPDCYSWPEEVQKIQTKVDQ
UniProt Q5VSG8: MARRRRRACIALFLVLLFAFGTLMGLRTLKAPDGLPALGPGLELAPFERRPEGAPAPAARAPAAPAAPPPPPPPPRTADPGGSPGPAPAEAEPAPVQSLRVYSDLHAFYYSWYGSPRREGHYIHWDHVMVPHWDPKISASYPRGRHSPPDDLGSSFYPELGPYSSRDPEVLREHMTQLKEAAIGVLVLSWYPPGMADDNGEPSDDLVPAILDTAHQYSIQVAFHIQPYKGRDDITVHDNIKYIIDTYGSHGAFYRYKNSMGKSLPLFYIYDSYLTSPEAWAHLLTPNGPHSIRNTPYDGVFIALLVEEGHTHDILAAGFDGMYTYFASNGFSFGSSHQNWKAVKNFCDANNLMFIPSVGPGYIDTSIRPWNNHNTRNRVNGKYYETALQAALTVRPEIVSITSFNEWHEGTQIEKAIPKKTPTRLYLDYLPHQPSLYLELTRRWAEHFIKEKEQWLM
UniProt Q6N075: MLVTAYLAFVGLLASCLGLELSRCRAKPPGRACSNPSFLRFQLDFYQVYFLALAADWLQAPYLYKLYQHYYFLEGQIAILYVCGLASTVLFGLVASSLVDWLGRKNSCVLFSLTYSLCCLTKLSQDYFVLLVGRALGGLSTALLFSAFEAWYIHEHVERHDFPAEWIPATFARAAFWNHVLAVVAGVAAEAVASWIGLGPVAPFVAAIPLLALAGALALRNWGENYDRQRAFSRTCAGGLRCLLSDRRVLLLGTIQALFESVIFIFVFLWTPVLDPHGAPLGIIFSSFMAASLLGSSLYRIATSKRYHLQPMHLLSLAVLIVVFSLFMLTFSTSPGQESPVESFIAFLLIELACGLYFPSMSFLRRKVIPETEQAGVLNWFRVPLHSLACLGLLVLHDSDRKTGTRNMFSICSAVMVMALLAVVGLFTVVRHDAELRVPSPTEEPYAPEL

What follows are targets tested with COc1ccc(Cn2ccc3ccc(C(=O)NO)cc32)cc1 (assay: dose-dependent thermal stabilisation call (2D-TPP, DLPTP, 10% FDR) (binary (1 = stabilised)); higher = stabilised by the compound). Conditions: system: HL-60 intact cells; concentration range 0.04-10 µM.

Target | dose-dependent thermal stabilisation call
MCM4 (UniProt P33991) | inactive: 0
MPHOSPH6 (UniProt Q99547) | inactive: 0
MAP2K3 (UniProt P46734) | inactive: 0
MRPL19 (UniProt P49406) | inactive: 0
MAP7D1 (UniProt Q3KQU3) | inactive: 0
ME1 (UniProt P48163) | inactive: 0
MRPS18B (UniProt Q9Y676) | inactive: 0
MRPL47 (UniProt Q9HD33) | inactive: 0
MANEAL (UniProt Q5VSG8) | inactive: 0
MFSD5 (UniProt Q6N075) | inactive: 0

In a second layout: entries from further up
Target,dose-dependent thermal stabilisation call
MRPS18B (UniProt Q9Y676),inactive: 0
MRPL47 (UniProt Q9HD33),inactive: 0
